From US12466856B2, “Echinocandin analogues and preparation method therefor” (SHANGHAI SENHUI MEDICINE CO., LTD., priority 2019, dated 2025)
Some results were stated once for a whole list of compounds, not compound by compound.

Test: Plasma histamine assay after single intravenous injection in SD rats
Assay type: in vivo
Details: 10 mg/kg single intravenous injection
Procedure: 12 SD rats were divided into 2 groups of 6 (half are male and half female). […] The body weights were measured once before administration. Administration was performed by single intravenous injection for 20 min per animal. PK measurement was performed once before administration and 5 min, 30 min, 1 h, 4 h, 8 h, 24 h, 48 h, 72 h and 96 h after administration. A histamine assay was performed once before administration and 30 min, 4 h, 8 h and 24 h after administration.

Compound | time at which plasma histamine substantially returned to the normal level [h]
CCCCCOc1ccc(-c2ccc(-c3ccc(C(=O)N[C@H]4C[C@@H](O)[C@@H](OC[C@H]5CCC[N+]5(C)C)NC(=O)[C@@H]5[C@@H](O)[C@@H](C)CN5C(=O)[C@H]([C@@H](C)O)NC(=O)[C@H]([C@H](O)[C@@H](O)c5ccc(O)cc5)NC(=O)[C@@H]5C[C@@H](O)CN5C(=O)[C@H]([C@@H](C)O)NC4=O)cc3)cc2)cc1 [Example 13] | 8 to 24
Rezafungin acetate | 8 to 24
